From publication PMC9399058 (European Journal of Nuclear Medicine and Molecular Imaging, 2022)

Experiment: general procedure: Fmoc solid-phase peptide synthesis; Trityl resin
Conditions: whole synthesis, scale 50 µmol

In the case of Hex-Cys-Pro-Pro-Thr-Gln-Phe-Cys-OH, the isolated mass is reported as 17.8 mg and the isolated yield is reported as 32.8%.
